Reference: PubChem BioAssay AID602196 (INSERM, 2012)
In all, the deposit lists about 23,000 reagents; this is a part drawn at random. Of all reagents, 455 (2%) got an active call. 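Active includes both protection and sensitisation; some change values fall well beyond the stated -50 to +50 range.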 Unmarked entries are inactive. Reagents against one gene are numbered here. Not given: the amount of reagent.

Assay: 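Modifiers of cisplatin sensitivity in A549 cells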
Cell system: human A549 lung cancer cells
Knock-down reagent: siRNA pair against human genes
Time to read-out: 48 h transfection before cisplatin; time from cisplatin to read-out not stated
Treatment: cisplatin at a dose killing half of control-siRNA cells; exact dose and duration not given
Measured: 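Cisplatin cell death as a shift from the 50% death seen with control siRNA; siRNAs toxic or growth-blocking alone scored 0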
Scale: two-siRNA summed score (-2 to +2): higher = both siRNAs protect from cisplatin killing; -2 means both sensitise; mean protection from cisplatin (shift in death) and protection from cisplatin (shift in death), siRNA C and protection from cisplatin (shift in death), siRNA D: higher = protection from cisplatin killing
Call rule: 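Each siRNA scores 0 if harmful alone by LDH or WST-1, otherwise +1 if it reduces and -1 if it increases cisplatin killing; a gene is active when both siRNAs agree (sum +2 or -2)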
Meaning of the calls: active = both siRNAs shift cisplatin killing the same way; inactive = no consistent shift, or siRNA harmful alone

no.	Target gene	reagent no.	two-siRNA summed score (-2 to +2)	mean protection from cisplatin (shift in death) (%)	protection from cisplatin (shift in death), siRNA C (%)	protection from cisplatin (shift in death), siRNA D (%)
1	API5	1	0	-7.1	-11.1	-3.1
2	TMEM25	1	0	12	-1.3	25.2
3	ATP2A3	1	0	3.6	4.7	2.4
4	GPR152	1	0	-14.8	0.2	-29.9
5	ELK4	1	0	3.5	3.2	3.8
6	RPP30	1	0	13.7	10.9	16.6
7	SETMAR	1	0	-6.4	-13.1	0.4
8	BTBD10	1	0	8.7	14.2	3.2
9	LOC401529	1	0	3.6	13.2	-6
10	TULP4	1	0	-5.6	8	-19.1
11	ANKRD18DP	1	1	11	14	8.1
12	CRYZL1	1	0	2.5	5.3	-0.2
13	WFDC2	1	0	20.1	4.1	36.1
14	RRM1	1	-1	-8.5	-14.3	-2.7
15	MARCHF3	1	0	-0.7	-6.7	5.2
16	LOC401052 (retired record)	1	0	-3.1	-13.2	7.1
17	CACNA1E	1	-1	-15.9	-1.3	-30.5
18	C1orf216	1	0	4	3.9	4.2
19	SNAP91	1	0	-3.5	-2.9	-4.2
20	LOC441815	1	0	11.2	8.6	13.9
21	LOC152667	1	0	6.8	10.7	2.9
22	ZNF703	1	0	2.1	5.2	-1
23	TCP10L	1	0	-1.8	-11.3	7.7
24	TCP10L	2	0	0.3	-2.4	3.1
25	LOC400481	1	0	-8.8	2.1	-19.8
26	YPEL4	1	-1	-9.8	-1.5	-18.2
27	LOC440659	1	0	8.5	2	15.1
28	INTS12	1	0	-8	-10.8	-5.1
29	LOC440370	1	0	0.1	-1.6	1.8
30	ZMYND10	1	0	1.7	-3.2	6.6
31	IGFLR1	1	-1	-3.9	7.7	-15.5
32	INHA	1	0	2.3	9.2	-4.6
33	TLNRD1	1	-1	-4.5	-10.2	1.1
34	MATN3	1	0	5.2	9.8	0.7
35	RPL37	1	-1	-11	2	-24
36	LY6G6F	1	0	3.4	6.5	0.2
37	ARVCF	1	-1	-10.2	-13.5	-6.9
38	FAM89B	1	-1	-17.8	-31.4	-4.1
39	LOC441112	1	0	-7.2	-10	-4.4
40	NME2P1	1	0	-2.3	-4.1	-0.5
41	MUC17	1	0	-4.2	-7	-1.4
42	LOC388519	1	0	7.5	5.2	9.8
43	MPP1	1	0	1.6	-8.2	11.5
44	DCUN1D3	1	0	-2.1	-3.2	-1.1
45	ANKRD49	1	0	15.9	1.4	30.3
46	TMCO6	1	0	-4.9	-17.1	7.3
47	LOC389352	1	1	2.5	-9	14
48	NHP2	1	0	3.8	1.1	6.6
49	PLEC	1	0	-1.2	-4.3	1.9
50	PTGR3	1	0	-0.7	11.1	-12.5
51	LOC401954	1	0	3.4	19.9	-13
52	MRPL13	1	0	2.4	-1.1	5.8
53	INTS10	1	-1	-17.5	-24.5	-10.6
54	KRT83	1	0	8.2	-5.3	21.7
55	MAP3K10	1	0	-12.3	-8.5	-16.2
56	UQCC4	1	1	27.6	25.7	29.5
57	CLEC5A	1	0	-12.4	-5	-19.7
